Data reported in PMC7360120.
Changes are numbered by the printed parent chain. Results are given in words; binding and its absence hold for the method and conditions named. For some of these results: A result given as binding can be weak or reduced; the word gives no strength. Where a sequence is shown, tags or fusion partners need not be part of it. For some of these results: In cells and extracts the contact can be indirect.

Key:
GST-Rab3A Q81L = biological target: T1, GST-Rab3A Q81L (UniProt P63011); assay: pull-down; GST-Rab proteins (10 μg) on glutathione-Sepharose with 0.5 mL lysate of HEK293T cells transfected with HA-ELKS; 100 mM NaCl, 4 mM EGTA, 25 mM HEPES pH 7.4, 1 mM DTT, 1% Triton X-100, 6 mM Mg2+, 1.5 h at 4°C; HA western blot; only the target purified
T1 sequence: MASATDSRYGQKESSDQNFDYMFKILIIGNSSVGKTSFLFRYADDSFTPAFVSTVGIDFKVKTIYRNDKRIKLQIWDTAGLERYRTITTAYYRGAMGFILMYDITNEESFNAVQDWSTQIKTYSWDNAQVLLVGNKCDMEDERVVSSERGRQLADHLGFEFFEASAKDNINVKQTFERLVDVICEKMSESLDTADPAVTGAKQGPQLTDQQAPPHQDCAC

GST-Rab3A T36N = biological target: T2, GST-Rab3A T36N (UniProt P63011); assay: as above
T2 sequence: T1 sequence with T36N, L81Q

GST-Rab6A Q72L = biological target: T3, GST-Rab6A Q72L (UniProt P35279); assay: as above
T3 sequence: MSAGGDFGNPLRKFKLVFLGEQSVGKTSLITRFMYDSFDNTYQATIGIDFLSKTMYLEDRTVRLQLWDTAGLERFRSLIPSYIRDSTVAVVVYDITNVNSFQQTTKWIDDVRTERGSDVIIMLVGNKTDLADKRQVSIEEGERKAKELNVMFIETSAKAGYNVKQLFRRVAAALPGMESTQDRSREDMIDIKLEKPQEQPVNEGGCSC

GST-ELKS2αB 765-884 = biological target: T4, GST-ELKS2αB 765-884 (UniProt Q8K3M6); assay: pull-down; GST-ELKS fragments on glutathione-Sepharose with soluble purified His-Rab6 point mutants (1.2 μM); 150 mM NaCl, 20 mM HEPES pH 7.4, 4 mM EGTA, 1 mM DTT, 1% Triton X-100, 0.1 mg/ml BSA, 5 mM Mg2+, 1 h at 4°C; T7 western blot; both purified
T4 sequence: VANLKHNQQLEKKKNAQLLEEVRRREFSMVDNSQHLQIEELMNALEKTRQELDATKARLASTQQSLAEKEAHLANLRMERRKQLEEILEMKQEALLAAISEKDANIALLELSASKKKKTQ

Row | binding (GST-ELKS2αB 765-884) | Substance | binding (GST-Rab3A Q81L) | binding (GST-Rab3A T36N) | binding (GST-Rab6A Q72L)
1 | – | HA-ELKS1βB | no binding (tested: 10 μg GST-Rab in 0.5 mL lysate) | no binding (tested: 10 μg GST-Rab in 0.5 mL lysate) | –
2 | – | HA-ELKS2αA (as printed in the legend of Figure 3) | no binding (tested: 10 μg GST-Rab in 0.5 mL lysate) | no binding (tested: 10 μg GST-Rab in 0.5 mL lysate) | –
3 | – | HA-ELKS1αB | no binding (tested: 10 μg GST-Rab in 0.5 mL lysate) | no binding (tested: 10 μg GST-Rab in 0.5 mL lysate) | binds
4 | binds | His-Rab6 (tested with ELKS2, Figures S3D-S3G) | – | – | –
5 | – | HA-ELKS1αA | no binding (tested: 10 μg GST-Rab in 0.5 mL lysate) | no binding (tested: 10 μg GST-Rab in 0.5 mL lysate) | –
6 | – | HA-ELKS1^∆955-971 | – | – | no binding (tested: 10 μg GST-Rab in 0.5 mL lysate)
7 | – | HA-ELKS2βB | binds weakly | no binding (tested: 10 μg GST-Rab in 0.5 mL lysate) | –
